Measured values: PMC3712487
Results are given in words; binding and its absence hold for the method and conditions named. Binding can be weak; no strength is given.

Protein sequences, listed by entry. Tags and fused reporters are not part of them. Lines headed by an entry give the natural chain unless they say otherwise; changes in a name come on top.
UniProt P46527: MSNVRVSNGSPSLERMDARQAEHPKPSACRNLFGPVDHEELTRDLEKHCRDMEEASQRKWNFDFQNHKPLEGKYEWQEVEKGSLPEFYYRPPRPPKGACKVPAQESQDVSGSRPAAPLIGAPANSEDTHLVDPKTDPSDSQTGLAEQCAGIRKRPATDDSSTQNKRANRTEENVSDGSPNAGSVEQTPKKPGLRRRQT
UniProt P28072: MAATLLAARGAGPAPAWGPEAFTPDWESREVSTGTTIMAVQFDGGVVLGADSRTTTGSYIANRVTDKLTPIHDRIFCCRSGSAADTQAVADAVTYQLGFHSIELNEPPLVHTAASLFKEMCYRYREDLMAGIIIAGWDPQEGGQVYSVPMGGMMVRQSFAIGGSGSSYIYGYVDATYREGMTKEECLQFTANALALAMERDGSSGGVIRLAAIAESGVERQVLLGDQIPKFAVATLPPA

Target: p27^Kip1–GST (UniProt P46527)
Experiment: pull-down; p27^Kip1–GST held on glutathione resin, incubated with purified β1–His6 (wild type or mutant) for 4 h at 4°C; blots with anti-β1/His6 antibodies; both purified

| Substance | binding |
| --- | --- |
| β1–His6 (full-length β1, wild type) (from UniProt P28072) (enzyme) | binds |
| β1–His6 S158A (from UniProt P28072) (enzyme) | binds |
